# Results deposited as PubChem BioAssay AID1159578 (Peter MacCallum Cancer Centre, 2015)
# Assay: 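Knock-downs that alter how fast lymphatic endothelial cells migrate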 (primary screen)
# System: human lymphatic endothelial cells
# Reagents: siRNA pool against human genes, 40 nM
# Timing: 48 h after transfection
# Measured: 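Cells stained with dye and imaged after a scratch; covered wound area and nuclei counted, duplicates averaged, migration set against mock wells and turned into a robust z-score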
# Reading the numbers: migration robust z-score: higher = faster migration into the scratch; migration relative to mock: higher = more scratch area covered than mock; nuclei per well: higher = more cells in the well
# Rule for the call: 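Pools averaging fewer than 3300 nuclei are never called; remaining pools count as changed when migration robust z lies outside -2 to 2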
# Meaning of the calls: active = migration changed; inactive = no migration change, or too few cells
# The whole screen tested about 18,000 reagents; below is a random part of them. About 1,030 of them (5.7%) were called active. 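Inactive calls also include pools with fewer than 3300 nuclei, whose migration was not assessed.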 The raw values are shown without normalisation. Reagent sequences are not shown.
Gene,migration robust z-score,migration class with cell-count check,migration relative to mock,"nuclei per well, duplicate mean",call
TFEB (GeneID 7942),0.34,migration z between -2 and 2; enough cells,0.87,5649,inactive
RGPD1 (GeneID 400966),0.24,migration z between -2 and 2; enough cells,0.95,5639,inactive
ZNF169 (GeneID 169841),1.05,migration z between -2 and 2; enough cells,1.16,6370,inactive
WDR7 (GeneID 23335),-0.6,migration z between -2 and 2; enough cells,0.74,6059,inactive
MED21 (GeneID 9412),-0.91,migration z between -2 and 2; enough cells,0.63,6572,inactive
KRT76 (GeneID 51350),0.19,migration z between -2 and 2; enough cells,0.94,5276,inactive
CABLES1 (GeneID 91768),-0.49,migration z between -2 and 2; enough cells,0.76,4863,inactive
RPS6KA4 (GeneID 8986),0.11,migration z between -2 and 2; enough cells,0.82,5154,inactive
SLC29A4 (GeneID 222962),-0.72,migration z between -2 and 2; enough cells,0.7,3888,inactive
CD6 (GeneID 923),0.99,migration z between -2 and 2; enough cells,1,4187,inactive
C8G (GeneID 733),-2,migration z between -2 and 2; enough cells,0.42,6988,inactive
ESRRB (GeneID 2103),0.52,migration z between -2 and 2; enough cells,0.9,4546,inactive
MPZL2 (GeneID 10205),0.66,migration z between -2 and 2; enough cells,1.06,5615,inactive
CALR3 (GeneID 125972),0.64,migration z between -2 and 2; enough cells,1.05,5788,inactive
TESK1 (GeneID 7016),-2.23,migration z below -2; enough cells,0.38,4078,active
DNAJC25-GNG10 (GeneID 552891),-0.22,migration z between -2 and 2; enough cells,0.83,6382,inactive
FAM209B (GeneID 388799),-2.36,migration z below -2; enough cells,0.26,4464,active
H2BC9 (GeneID 8345),-0.84,migration z between -2 and 2; enough cells,0.66,5459,inactive
OR2A14 (GeneID 135941),-0.17,migration z between -2 and 2; enough cells,0.84,5552,inactive
OXER1 (GeneID 165140),0.7,migration z between -2 and 2; enough cells,0.94,5855,inactive
SSX1 (GeneID 6756),0.42,migration z between -2 and 2; enough cells,0.88,4660,inactive
SCUBE3 (GeneID 222663),0.98,migration z between -2 and 2; enough cells,1.14,6325,inactive
LPIN2 (GeneID 9663),-2.11,under 3300 nuclei; migration not judged,0.34,3133,inactive
SETD4 (GeneID 54093),1.52,migration z between -2 and 2; enough cells,1.28,5852,inactive
USP9Y (GeneID 8287),1.71,migration z between -2 and 2; enough cells,1.13,6416,inactive
ADPGK (GeneID 83440),-0.78,migration z between -2 and 2; enough cells,0.66,7197,inactive
MTFMT (GeneID 123263),0,migration z between -2 and 2; enough cells,0.8,5190,inactive
MRPL38 (GeneID 64978),-0.52,migration z between -2 and 2; enough cells,0.75,5623,inactive
SEC23B (GeneID 10483),-0.11,migration z between -2 and 2; enough cells,0.86,4812,inactive
RCL1 (GeneID 10171),0.42,migration z between -2 and 2; enough cells,0.88,5537,inactive
ADAMTS3 (GeneID 9508),-0.5,migration z between -2 and 2; enough cells,0.71,5116,inactive
REL (GeneID 5966),0.7,migration z between -2 and 2; enough cells,0.94,5086,inactive
ZNF331 (GeneID 55422),-0.2,migration z between -2 and 2; enough cells,0.83,5572,inactive
GGN (GeneID 199720),0.28,migration z between -2 and 2; enough cells,0.96,4760,inactive
MCAT (GeneID 27349),-0.45,migration z between -2 and 2; enough cells,0.77,6084,inactive
ARHGAP4 (GeneID 393),-0.2,migration z between -2 and 2; enough cells,0.84,6356,inactive
FGF21 (GeneID 26291),1.48,migration z between -2 and 2; enough cells,1.09,5976,inactive
FAM222B (GeneID 55731),-2.4,migration z below -2; enough cells,0.26,4972,active

Looked up above:
For “call”, REL (GeneID 5966) shows inactive
Value for H2BC9 (GeneID 8345) in “call”: inactive
Under “nuclei per well, duplicate mean”, RCL1 (GeneID 10171) has 5537

The results go on:
Gene,migration robust z-score,migration class with cell-count check,migration relative to mock,"nuclei per well, duplicate mean",call
RHEX (GeneID 440712),-0.76,migration z between -2 and 2; enough cells,0.69,5285,inactive
DSCAML1 (GeneID 57453),-1.57,migration z between -2 and 2; enough cells,0.48,5244,inactive
KLF8 (GeneID 11279),0.01,migration z between -2 and 2; enough cells,0.88,5616,inactive
EMSY (GeneID 56946),-1.23,under 3300 nuclei; migration not judged,0.56,2348,inactive
FGFBP1 (GeneID 9982),0.23,migration z between -2 and 2; enough cells,0.94,5684,inactive
S100A7P3 (GeneID 645922),0.28,migration z between -2 and 2; enough cells,0.96,5995,inactive
PTPN12 (GeneID 5782),-1.35,migration z between -2 and 2; enough cells,0.55,4828,inactive
RFX5 (GeneID 5993),-3.4,under 3300 nuclei; migration not judged,0.15,2515,inactive
KLHL18 (GeneID 23276),-1.62,migration z between -2 and 2; enough cells,0.46,5762,inactive
BRS3 (GeneID 680),-0.1,migration z between -2 and 2; enough cells,0.78,5843,inactive
SLFN11 (GeneID 91607),-0.39,migration z between -2 and 2; enough cells,0.73,5719,inactive
SELENBP1 (GeneID 8991),0.68,migration z between -2 and 2; enough cells,1.05,5663,inactive
ATP5PD (GeneID 10476),0.68,migration z between -2 and 2; enough cells,0.94,6364,inactive
PGS1 (GeneID 9489),-0.57,migration z between -2 and 2; enough cells,0.7,5906,inactive
KRT81 (GeneID 3887),-5,under 3300 nuclei; migration not judged,-0.38,1490,inactive
GARIN4 (GeneID 149647),-1.39,migration z between -2 and 2; enough cells,0.52,3968,inactive
ALKBH5 (GeneID 54890),-0.08,migration z between -2 and 2; enough cells,0.86,4698,inactive
MEAK7 (GeneID 57707),-0.01,migration z between -2 and 2; enough cells,0.88,5670,inactive
ADARB2 (GeneID 105),-0.54,migration z between -2 and 2; enough cells,0.74,5626,inactive
